No constants are given. Whether binding was seen depends on the method and setting. Binding seen in cells or lysates may run through a third protein. Some binding calls cover weakened binding; strength is not graded here. For part of these data: Sequences can lack the tags named with a protein.
B1: RIPK1 (endogenous, human cells), Q13546 1-671 (protein)
chain: MQPDMSLNVIKMKSSDFLESAELDSGGFGKVSLCFHRTQGLMIMKTVYKGPNCIEHNEALLEEAKMMNRLRHSRVVKLLGVIIEEGKYSLVMEYMEKGNLMHVLKAEMSTPLSVKGRIILEIIEGMCYLHGKGVIHKDLKPENILVDNDFHIKIADLGLASFKMWSKLNNEEHNELREVDGTAKKNGGTLYYMAPEHLNDVNAKPTEKSDVYSFAVVLWAIFANKEPYENAICEQQLIMCIKSGNRPDVDDITEYCPREIISLMKLCWEANPEARPTFPGIEEKFRPFYLSQLEESVEEDVKSLKKEYSNENAVVKRMQSLQLDCVAVPSSRSNSATEQPGSLHSSQGLGMGPVEESWFAPSLEHPQEENEPSLQSKLQDEANYHLYGSRMDRQTKQQPRQNVAYNREEERRRRVSHDPFAQQRPYENFQNTEGKGTAYSSAASHGNAVHQPSGLTSQPQVLYQNNGLYSSHGFGTRPLDPGTAGPRVWYRPIPSHMPSLHNIPVPETNYLGNTPTMPFSSLPPTDESIKYTIYNSTGIQIGAYNYMEIGGTSSSLLDSTNTNFKEEPAAKYQAIFDNTTSLTDKHLDPIRENLGKHWKNCARKLGFTQSQIDEIDHDYERDGLKEKVYQMLQKWVMREGIKGATVGKLAQALHQCSRIDLLSSLIYVSQN
B2: RIPK3 (endogenous, human cells), Q9Y572 1-518 (protein)
chain: MSCVKLWPSGAPAPLVSIEELENQELVGKGGFGTVFRAQHRKWGYDVAVKIVNSKAISREVKAMASLDNEFVLRLEGVIEKVNWDQDPKPALVTKFMENGSLSGLLQSQCPRPWPLLCRLLKEVVLGMFYLHDQNPVLLHRDLKPSNVLLDPELHVKLADFGLSTFQGGSQSGTGSGEPGGTLGYLAPELFVNVNRKASTASDVYSFGILMWAVLAGREVELPTEPSLVYEAVCNRQNRPSLAELPQAGPETPGLEGLKELMQLCWSSEPKDRPSFQECLPKTDEVFQMVENNMNAAVSTVKDFLSQLRSSNRRFSIPESGQGGTEMDGFRRTIENQHSRNDVMVSEWLNKLNLEEPPSSVPKKCPSLTKRSRAQEEQVPQAWTAGTSSDSMAQPPQTPETSTFRNQMPSPTSTGTPSPGPRGNQGAERQGMNWSCRTPEPNPVTGRPLVNIYNCSGVQVGDNNYLTMQQTTALPTWGLAPSGKGRGLQHPPPVGSQEGPKDPEAWSRPQGWYNHSGK

Experiments:
[1] = biological target: T1, FLAG-tagged human ZBP1 (Flag-hZBP1) (human), Q9H171; experiment: co-IP; settings: remark: other sources report otherwise
T1 chain: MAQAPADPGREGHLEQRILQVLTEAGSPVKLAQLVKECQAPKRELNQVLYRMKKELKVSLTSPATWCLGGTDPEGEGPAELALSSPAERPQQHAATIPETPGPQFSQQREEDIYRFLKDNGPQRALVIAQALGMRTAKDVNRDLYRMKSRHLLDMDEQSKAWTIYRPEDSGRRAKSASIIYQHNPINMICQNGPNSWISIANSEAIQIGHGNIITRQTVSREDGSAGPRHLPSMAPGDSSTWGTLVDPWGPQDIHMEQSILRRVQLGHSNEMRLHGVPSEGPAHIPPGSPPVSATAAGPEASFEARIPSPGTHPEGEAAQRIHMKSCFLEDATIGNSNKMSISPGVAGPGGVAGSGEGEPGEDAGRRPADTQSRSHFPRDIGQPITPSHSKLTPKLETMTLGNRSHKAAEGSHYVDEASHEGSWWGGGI

[2] = biological target: T2, mouse ZBP1 (mZBP1) expressed in HT29 cells (mouse), Q9QY24; experiment: co-IP; settings: remark: other sources report otherwise
T2 chain: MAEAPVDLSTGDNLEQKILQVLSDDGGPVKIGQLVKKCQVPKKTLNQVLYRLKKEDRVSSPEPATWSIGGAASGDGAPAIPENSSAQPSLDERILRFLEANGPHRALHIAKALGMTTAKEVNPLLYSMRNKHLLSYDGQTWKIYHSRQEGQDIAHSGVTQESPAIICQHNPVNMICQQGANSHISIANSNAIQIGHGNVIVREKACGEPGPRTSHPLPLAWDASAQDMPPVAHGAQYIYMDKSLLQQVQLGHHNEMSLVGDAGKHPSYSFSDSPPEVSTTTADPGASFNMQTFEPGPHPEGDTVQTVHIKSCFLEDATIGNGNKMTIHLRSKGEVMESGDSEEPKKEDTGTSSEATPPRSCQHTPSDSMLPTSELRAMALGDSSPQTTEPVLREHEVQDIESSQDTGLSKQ

| Binder | binding [1] | binding [2] |
| --- | --- | --- |
| B1 | binds | binds |
| B2 |  | binds |

Source: publication PMC11844899
